Results: patent US20140199714A1, “METHOD FOR DETECTING CANCER CELLS METASTASIZING INTO SENTINEL LYMPH NODE” (SHINSHU UNIVERSITY, priority 2008, published 2014)

Experiment: ATP assay (luciferin-luciferase)

## Nc1ncnc2c1ncn2[C@@H]1O[C@H](COP(=O)(O)OP(=O)(O)OP(=O)(O)O)[C@@H](O)[C@H]1O [ATP]
Culture medium with ATP 10^−6 M
  Relative Luminescence Intensity: 67462.0 ± 947.1
Culture medium with ATP 10^−7 M
  Relative Luminescence Intensity: 9679.0 ± 1193.2
Culture medium with ATP 10^−8 M
  Relative Luminescence Intensity: 1138.5 ± 47.5
